Assay results taken from article PMC8952208, “Synthesis, Antiplasmodial, and Antileukemia Activity of Dihydroartemisinin–HDAC Inhibitor Hybrids as Multitarget Drugs” (Pharmaceuticals, 2022).

Key:
P. falciparum 3D7 = assay type: cell-based; details: Selectivity Index = (A2780 IC50)/(P. falciparum IC50)
Protocol: [38, 39] […] After three days of incubation at 37 °C, 5% CO2 and 5% O2 plates were frozen until analyzed by HRP2-ELISA. All compounds were evaluated in duplicate in at least two independent experiments. The IC50 was determined by nonlinear regression analysis of log concentration-response curves using the drc-package v3.0.1 [40] of R v4.0.5..

P. falciparum Dd2 = assay type: cell-based; details: Selectivity Index = (A2780 IC50)/(P. falciparum IC50)

Row | Compound | SI A2780/Pf 3D7 (P. falciparum 3D7) | SI A2780/Pf Dd2 (P. falciparum Dd2)
1 | C[C@H]1[C@@H](SCc2ccc(C(=O)NO)cc2)O[C@@H]2O[C@@]3(C)CC[C@H]4[C@H](C)CC[C@@H]1[C@@]24OO3 [(α)-7c, N-Hydroxy-4-((((3R,5aS,6R,8aS,9R,10R,12S,12aR)-3,6,9-trimethyldecahydro-12H-3,12-epoxy[1,2]dioxepino[4,3-i]isochromen-10-yl)thio)methyl)benzamide] | 333 | 324
2 | C[C@H]1[C@@H](Sc2ccc(CC(=O)NO)cc2)O[C@@H]2O[C@@]3(C)CC[C@H]4[C@H](C)CC[C@@H]1[C@@]24OO3 [(α)-7e, N-Hydroxy-2-(4-(((3R,5aS,6R,8aS,9R,10R,12S,12aR)-3,6,9-trimethyldecahydro-12H-3,12-epoxy[1,2]dioxepino[4,3-i]isochromen-10-yl)thio)phenyl)acetamide] | 590 | 1017
3 | C[C@H]1[C@H](SCc2ccc(C(=O)NO)cc2)O[C@@H]2O[C@@]3(C)CC[C@H]4[C@H](C)CC[C@@H]1[C@@]24OO3 [(β)-7c, N-Hydroxy-4-((((3R,5aS,6R,8aS,9R,10S,12S,12aR)-3,6,9-trimethyldecahydro-12H-3,12-epoxy[1,2]dioxepino[4,3-i]isochromen-10-yl)thio)methyl)benzamide] | 244 | 275
4 | C[C@H]1[C@H](Sc2ccc(CC(=O)NO)cc2)O[C@@H]2O[C@@]3(C)CC[C@H]4[C@H](C)CC[C@@H]1[C@@]24OO3 [(β)-7e, N-Hydroxy-2-(4-(((3R,5aS,6R,8aS,9R,10S,12S,12aR)-3,6,9-trimethyldecahydro-12H-3,12-epoxy[1,2]dioxepino[4,3-i]isochromen-10-yl)thio)phenyl)acetamide] | 804 | 1306
5 | C[C@@H]1CC[C@H]2[C@@H](C)C(OCc3ccc(/C=C/C(=O)O)cc3)O[C@@H]3O[C@@]4(C)CC[C@@H]1[C@]32OO4 (stereo partly drawn) [Compound 6a, (E)-3-(4-((((3R,5aS,6R,8aS,9R,12R,12aR)-3,6,9-Trimethyldecahydro-12H-3,12-epoxy[1,2]dioxepino[4,3-i]isochromen-10-yl)oxy)methyl)phenyl)acrylic acid] | 573 | 583
6 | C[C@@H]1CC[C@H]2[C@@H](C)C(OCc3ccc(/C=C/C(=O)NO)cc3)O[C@@H]3O[C@@]4(C)CC[C@@H]1[C@]32OO4 (stereo partly drawn) [Compound 7a, (E)-N-Hydroxy-3-(4-((((3R,5aS,6R,8aS,9R,12R,12aR)-3,6,9-trimethyldecahydro-12H-3,12-epoxy[1,2]dioxepino[4,3-i]isochromen-10-yl)oxy)methyl)phenyl)acrylamide] | 750 | 1147
7 | C[C@@H]1CC[C@H]2[C@@H](C)C(SCCCCCC(=O)NO)O[C@@H]3O[C@@]4(C)CC[C@@H]1[C@]32OO4 (stereo partly drawn) [Compound 7b, N-Hydroxy-6-(((3R,5aS,6R,8aS,9R,12S,12aR)-3,6,9-trimethyldecahydro-12H-3,12-epoxy[1,2]dioxepino[4,3-i]isochromen-10-yl)thio)hexanamide] | 292 | 230
8 | C[C@H]1[C@H](OCc2ccc(C(=O)NO)cc2)O[C@@H]2O[C@@]3(C)CC[C@H]4[C@H](C)CC[C@@H]1[C@@]24OO3 [Compound 7d, N-Hydroxy-4-((((3R,5aS,6R,8aS,9R,10R,12R,12aR)-3,6,9-trimethyldecahydro-12H-3,12-epoxy[1,2]dioxepino[4,3-i]isochromen-10-yl)oxy)methyl)benzamide] | 468 | 655
9 | C[C@@H]1CC[C@H]2[C@@H](C)C(OCc3ccc(/C=C/C(=O)Nc4ccccc4N)cc3)O[C@@H]3O[C@@]4(C)CC[C@@H]1[C@]32OO4 (stereo partly drawn) [Compound 8, (E)-N-(2-Aminophenyl)-3-(4-((((3R,5aS,6R,8aS,9R,12R,12aR)-3,6,9-trimethyldecahydro-12H-3,12-epoxy[1,2]dioxepino[4,3-i]isochromen-10-yl)oxy)methyl)phenyl)acrylamide] | 588 | 588
10 | C[C@H]1[C@@H](O)O[C@@H]2O[C@@]3(C)CC[C@H]4[C@H](C)CC[C@@H]1[C@@]24OO3 [DHA, dihydroartemisinin] | 323 | 539
